Article PMC10575817
These are yes or no findings as the source states them, for the method shown. Binding seen in cells or lysates may run through a third protein. Some binding calls cover weakened binding; strength is not graded here.

Amino acid sequences for entries named in this document (tags omitted).
UniProt P16989: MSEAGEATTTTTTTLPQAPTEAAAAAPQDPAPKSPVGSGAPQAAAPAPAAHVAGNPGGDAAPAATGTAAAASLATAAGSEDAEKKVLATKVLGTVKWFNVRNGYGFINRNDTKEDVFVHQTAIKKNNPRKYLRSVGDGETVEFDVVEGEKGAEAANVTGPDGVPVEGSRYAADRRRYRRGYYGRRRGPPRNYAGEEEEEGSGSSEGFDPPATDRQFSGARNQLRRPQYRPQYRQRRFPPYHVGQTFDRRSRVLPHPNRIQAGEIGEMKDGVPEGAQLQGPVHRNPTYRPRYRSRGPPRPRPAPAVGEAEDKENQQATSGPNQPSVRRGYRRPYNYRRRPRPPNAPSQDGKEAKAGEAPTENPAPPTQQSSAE
UniProt Q07157: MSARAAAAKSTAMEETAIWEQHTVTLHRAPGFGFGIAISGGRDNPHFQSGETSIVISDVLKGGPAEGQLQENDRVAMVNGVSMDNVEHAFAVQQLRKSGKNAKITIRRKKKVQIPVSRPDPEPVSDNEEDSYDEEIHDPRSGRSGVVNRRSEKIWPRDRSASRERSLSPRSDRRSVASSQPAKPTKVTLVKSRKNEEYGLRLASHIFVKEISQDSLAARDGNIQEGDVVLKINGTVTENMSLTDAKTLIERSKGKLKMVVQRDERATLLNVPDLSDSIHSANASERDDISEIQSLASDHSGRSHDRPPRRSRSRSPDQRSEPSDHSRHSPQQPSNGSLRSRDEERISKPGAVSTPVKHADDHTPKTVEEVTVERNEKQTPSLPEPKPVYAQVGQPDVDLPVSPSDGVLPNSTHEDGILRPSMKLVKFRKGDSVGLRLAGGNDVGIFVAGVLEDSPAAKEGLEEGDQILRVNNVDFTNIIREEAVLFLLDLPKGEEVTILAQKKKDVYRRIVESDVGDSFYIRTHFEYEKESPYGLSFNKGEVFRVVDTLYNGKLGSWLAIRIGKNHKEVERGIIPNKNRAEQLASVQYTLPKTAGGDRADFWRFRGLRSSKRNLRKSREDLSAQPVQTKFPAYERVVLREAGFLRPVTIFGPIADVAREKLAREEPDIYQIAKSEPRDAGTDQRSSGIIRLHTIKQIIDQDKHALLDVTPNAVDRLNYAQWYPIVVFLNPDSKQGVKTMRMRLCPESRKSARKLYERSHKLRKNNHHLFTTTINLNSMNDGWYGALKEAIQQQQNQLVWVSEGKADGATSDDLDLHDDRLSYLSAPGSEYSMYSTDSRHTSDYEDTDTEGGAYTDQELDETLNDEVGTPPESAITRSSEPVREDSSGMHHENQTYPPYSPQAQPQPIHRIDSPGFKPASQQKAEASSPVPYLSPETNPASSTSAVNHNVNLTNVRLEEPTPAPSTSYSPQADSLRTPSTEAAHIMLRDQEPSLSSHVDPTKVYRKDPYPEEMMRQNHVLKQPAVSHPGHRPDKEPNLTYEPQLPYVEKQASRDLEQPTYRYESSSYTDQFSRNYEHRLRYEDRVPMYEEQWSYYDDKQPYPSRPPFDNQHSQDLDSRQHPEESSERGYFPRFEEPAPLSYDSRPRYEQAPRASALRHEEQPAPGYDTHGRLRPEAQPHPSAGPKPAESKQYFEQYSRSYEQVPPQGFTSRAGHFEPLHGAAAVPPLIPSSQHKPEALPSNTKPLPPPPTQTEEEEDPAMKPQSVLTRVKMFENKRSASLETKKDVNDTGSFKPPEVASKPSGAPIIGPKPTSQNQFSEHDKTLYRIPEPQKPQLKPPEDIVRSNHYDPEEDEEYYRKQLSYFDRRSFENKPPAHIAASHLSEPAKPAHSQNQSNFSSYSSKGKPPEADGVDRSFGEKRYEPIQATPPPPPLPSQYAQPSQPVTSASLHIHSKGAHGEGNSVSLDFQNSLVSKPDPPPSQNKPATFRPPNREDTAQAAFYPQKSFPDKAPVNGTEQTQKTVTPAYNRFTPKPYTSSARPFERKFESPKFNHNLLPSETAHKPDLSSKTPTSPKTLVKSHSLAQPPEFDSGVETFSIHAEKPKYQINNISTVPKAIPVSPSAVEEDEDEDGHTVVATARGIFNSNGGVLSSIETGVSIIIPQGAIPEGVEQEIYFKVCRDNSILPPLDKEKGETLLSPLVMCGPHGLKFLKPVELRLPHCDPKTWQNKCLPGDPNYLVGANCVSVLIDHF

Biological target: Y-box binding protein 3 (YBX3) (human (endogenous in MSCs)) (UniProt P16989)
Assay: co-IP; protein extracted from MSCs incubated with anti-YBX3 antibody (or IgG control) at 4 °C for 6 h, protein G beads overnight, immunoblot with anti-ZO-1 and anti-YBX3; MSCs transfected beforehand with NC siRNA, si-circSERPINE2, LV vector or LV-circSERPINE2 (Fig. 3L), or with circSERPINE2-WT or truncated circSERPINE2 (fig. S2J-K)

For ZO-1 (from UniProt Q07157 1-1748), the binding was “binds”.
